Some of these results come from one statement about several compounds together. At least one structure is not confirmed: it was looked up by name or label, or the drawing left a doubt.
Tested on: COLO 205 cells
Experiment: Cell cycle studies (G2/M arrest, DNA content by FACS) in COLO 205 cells
Format: cell-based, human
Details: asynchronous cells, 20 h

Q: With `COc1cc2cc(c1Cl)N(C)C(=O)C[C@H](OC(=O)[C@H](C)N(C)C(=O)CCSSC)[C@]1(C)O[C@H]1[C@H](C)[C@@H]1C[C@@](O)(NC(=O)O1)[C@H](OC)/C=C/C=C(\C)C2` [DM1-SMe, N^2′-deacetyl-N^2′-[(3-methyldithio)-1-oxopropyl]-maytansine] as the compound, how does the “cells in G2/M in the presence of BafA1” value (30 nM BafA1) read?
A: Its value is 37%-39%.

Q: What about the “cells arrested in the G2/M phase” value (37° C., conjugate 3 nM, DM1-SMe 10 nM, nocodazole 0.66 μM) of the same compound?
A: The value was “greater than 50%”.
